No constants are given. Whether binding was seen depends on the method and setting. Some binding calls cover weakened binding; strength is not graded here.

The assay deals with T1, Trichoderma reesei LAE1 (Trichoderma reesei) (UniProt G0RNN3).
T1 sequence: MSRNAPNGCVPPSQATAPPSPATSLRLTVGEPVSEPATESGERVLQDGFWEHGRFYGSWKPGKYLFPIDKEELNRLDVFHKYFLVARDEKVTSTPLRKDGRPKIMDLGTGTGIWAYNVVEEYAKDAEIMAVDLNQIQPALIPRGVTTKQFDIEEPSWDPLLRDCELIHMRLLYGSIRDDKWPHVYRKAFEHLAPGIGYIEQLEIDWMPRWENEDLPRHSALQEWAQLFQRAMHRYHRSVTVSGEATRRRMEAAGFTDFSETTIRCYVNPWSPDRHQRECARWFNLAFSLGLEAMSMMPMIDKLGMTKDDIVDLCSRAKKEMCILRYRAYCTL
Briefly: two-hybrid; LAE1/LaeA as bait in pTLex3, VEL1/VeA as prey in pGAD424, S. cerevisiae reporter strain L40; six transformants of each combination tested for coloration on -UTL medium containing X-Gal.

B1: Trichoderma reesei VEL1 (protein, UniProt G0RL42 1-573)
chain: MATPSSVASSSSRDQVQRIHRVTRENRHLWYQLTVLQQPERARACGSGMKANSDRRPVDPPPVVELRIIEGPSVEEGKDITFDYNANFFLYASLEQARTIAHGRVQNGATNNPPILTGVPASGMAYLDRPTEAGYFIFPDLSVRHEGYFRLSFSLYETTKEPKDFDLEPADSDLPPGVDWRMEIKTQPFNVFSAKKFPGLMESTSLSKTVADQGCRVRIRRDVRMRKRDGKGSGFDRRGEEEYSRRRTVTPAPAEDPNLRARSVSNASEHRGPYMPQEPPRRPSAAESYHAPPPLPPPPPSSYDAPPPAARPGHLGFGGDHNMPPQYGAPAARPYGHPQSAPIPPATPTGPYPTSSAAPSPYAKQDHHHQQQYSYNSRPPAPSASPAPPMKHAMYDNRPSEPYVPHSSPSVYASTERRPSYANYSAPAPYSTPASQPTYSTPASQPTYSTPASQPTYSAPPPAPYSAPAPPPPRPSMSQSSLAPLKIASLVSPLPPIEAQTEPLPPPPMLSTGGKRKHDHVFSQNHKPLYNGQRQLDAHYGHGYRGLTPEPDQGLYSRADGQIGVVTFNQYQV
In the case of B1, the binding result is on record as “binds”.

B2: Aspergillus nidulans VeA (protein, UniProt C8VTV4 1-573)
chain: MATLAAPPPPLGESGNSNSVSRITREGKKITYKLNIMQQPKRARACGQGSKSHTDRRPVDPPPVIELNIFESDPHDDSNKTDITFVYNANFFLFATLEPERPIATGKLMTNQGSPVLTGVPVAGVAYLDKPNRAGYFIFPDLSVRNEGSYRFSFHLFEQIKDPKDATEGTQPMPSPVPGKLSSPQEFLEFRLEVISNPFIVYSAKKFPGLTTSTPISRMIAEQGCRVRIRRDVRMRRRGDKRTEDYDYDNERGYNNRRPDQYAGSDAYANAPERPRSTSISTNMDPYSYPSRRPSAVEYGQPIAQPYQRPMASTPAPSSTPIPAPIPMPGPVALPPSTPSPASAHAPAPPSVPLAAPPPLHTPSYQSHLSFGATQTQYPAPQLSHIPQQTTTPTHPYSPRSSISHSRNQSISEYEPSMGYPGSQTRLSAERPSYGQPSQTTSLPPLRHSLEPSVNSRSKTPSNMITSLPPIQSLSELPSTTSQPSSAIGSSPANEPGPRLWETNSMLSKRTYEESFGHDDRPLYNGMRPDSESYPGGMQRRPSYERSSLLDGPDQMAYKRANGRMVSKPATMR
For B2, the binding entry is “no binding”.

For the origin of these results see article PMC3564997.
